Results are given in words; binding and its absence hold for the method and conditions named. Binding can be weak; no strength is given. For some of these results: In cells and extracts the contact can be indirect.
Assays:
[1] = target: GST-tagged SEC13B (Arabidopsis (Col-0)) (UniProt Q9SRI1); experiment: pull-down; GST fusions held on glutathione resin / anti-GST beads, His-tagged protein detected with anti-His; roughly equal amounts incubated at 16 °C for 14 h; 20 mM Tris-HCl pH 7.5, 150 mM NaCl, 0.1% Triton X-100, 10% glycerol
[2] = target: GST-tagged SEC13A (Arabidopsis (Col-0)) (UniProt O64740); experiment: as above
[3] = target: SEC13B fused with the N-terminal half of luciferase (Arabidopsis (Col-0)) (UniProt Q9SRI1); experiment: split reporter; luciferase complementary imaging (LCI) in N. benthamiana leaves; nLUC and cLUC fusions co-infiltrated, signal read 48 h after infiltration
[4] = target: SEC13A fused with the N-terminal half of luciferase (Arabidopsis (Col-0)) (UniProt O64740); experiment: as above
[5] = target: SEC13A (yeast two-hybrid bait) (Arabidopsis (Col-0)) (UniProt O64740); experiment: two-hybrid; point-to-point; pGBKT7 and pGADT7-Rec constructs co-transformed into yeast AH109; growth on medium lacking Trp, Leu, His and Ade (-WLHA), 3 days at 30 °C
[6] = target: SEC13B (yeast two-hybrid bait) (Arabidopsis (Col-0)) (UniProt Q9SRI1); experiment: as above

Chains of the proteins cited; added tags and fusions are not shown. Lines headed by an entry give the natural chain unless they say otherwise; changes in a name come on top.
UniProt Q9SRI1: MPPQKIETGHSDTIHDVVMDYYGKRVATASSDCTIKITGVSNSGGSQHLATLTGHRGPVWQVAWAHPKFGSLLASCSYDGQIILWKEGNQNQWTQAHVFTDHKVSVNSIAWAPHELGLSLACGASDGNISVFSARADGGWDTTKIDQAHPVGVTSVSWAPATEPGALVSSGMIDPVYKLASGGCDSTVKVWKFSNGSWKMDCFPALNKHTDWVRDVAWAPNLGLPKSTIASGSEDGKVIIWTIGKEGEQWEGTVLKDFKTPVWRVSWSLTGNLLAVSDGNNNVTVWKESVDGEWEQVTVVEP
UniProt O64740: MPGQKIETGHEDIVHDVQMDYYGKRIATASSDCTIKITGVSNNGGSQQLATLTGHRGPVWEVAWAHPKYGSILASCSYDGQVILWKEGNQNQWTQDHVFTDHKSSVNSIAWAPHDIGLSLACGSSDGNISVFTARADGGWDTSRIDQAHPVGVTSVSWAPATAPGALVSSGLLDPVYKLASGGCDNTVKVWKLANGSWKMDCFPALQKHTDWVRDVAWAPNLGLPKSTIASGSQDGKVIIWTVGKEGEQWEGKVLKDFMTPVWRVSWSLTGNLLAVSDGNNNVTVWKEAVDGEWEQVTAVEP
UniProt Q9C5G0: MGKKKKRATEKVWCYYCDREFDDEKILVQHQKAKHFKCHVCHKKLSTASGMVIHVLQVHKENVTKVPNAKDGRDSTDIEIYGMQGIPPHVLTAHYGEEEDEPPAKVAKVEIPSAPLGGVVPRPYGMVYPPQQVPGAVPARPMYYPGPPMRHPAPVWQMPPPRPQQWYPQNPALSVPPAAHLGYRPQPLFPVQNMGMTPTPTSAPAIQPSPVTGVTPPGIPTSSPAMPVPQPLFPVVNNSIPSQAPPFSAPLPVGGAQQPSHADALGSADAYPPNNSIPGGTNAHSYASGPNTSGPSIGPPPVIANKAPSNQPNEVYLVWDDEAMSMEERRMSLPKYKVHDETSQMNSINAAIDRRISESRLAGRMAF

binding [1]	binding [2]	binding [3]	binding [4]	Substance	other results
binds	binds	–	–	SUF4^Pro, C-terminal fragment (amino acids 101 to 367) of SUF4 (pull-down) (from UniProt Q9C5G0 101-367) (domain or fragment)	–
binds	binds	–	–	His-tagged SUF4 (from UniProt Q9C5G0 1-367)	–

Further lines, the substance ahead of its results:

Substance	binding [1]	binding [2]	binding [3]	binding [4]	other results
SUF4 fused with the C-terminal half of luciferase (from UniProt Q9C5G0 1-367)	–	–	binds	binds	–
SUF4^Pro (amino acids 101 to 367 of SUF4) fused with the C-terminal half of luciferase (from UniProt Q9C5G0 101-367) (domain or fragment)	–	–	binds	binds	–
SUF4^Pro, C-terminal fragment (amino acids 101 to 367) of SUF4 (yeast two-hybrid) (from UniProt Q9C5G0 101-367) (domain or fragment)	–	–	–	–	binding [5]: binds; binding [6]: binds
